# Reference: PubChem BioAssay AID445 (National Center for Advancing Translational Sciences (NCATS), 2006)
# “And” between values parts separate entries of the source, which are not always exact repeats. Equal values may be shown once. Some of the results follow. The main result of the screen is listed elsewhere. These columns were measured beside it and carry no call. Compounds called inactive in the main read-out are mostly missing here. Potencies come from curve fits of mixed quality, noted in brackets.
# Test: IkB Signaling
# Settings: ABC-DLBCL IkBa-CBG/CBR dual luciferase ratio (green luciferase fused to IkBa over red control in OCI-Ly3 lymphoma cells), 4 h
# How it was run: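 Luminescence ratio of IκBα-fused green versus native red beetle luciferase in OCI-Ly3 cells, 4 h post-doxycycline with compound; red signal alone, scaled from basal (0%) to zero light (-100%), flagged nonspecific or cytotoxic effects.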
# [1] = measured here: control luc red channel unless noted
# [2] = measured here: IkB-luc green channel
# [3] = measured here: control luc red channel
smiles,measurement,setting,value
c1coc(CNc2nc(N3CCCCC3)nc3ccccc23)c1,AC50,[1],"39.8 µM [falling, single point]"
CC(C)(C)NS(=O)(=O)c1ccc2nc(NC(=O)c3cccnc3)sc2c1,AC50,[1],"0.0501 µM [falling, full curve, poor fit]"
COc1ccc(C)cc1NC(=O)c1oc2ccc(S(=O)(=O)N(C)C3CCCCC3)cc2c1C,AC50,[1],"25.1 µM [falling, partial curve, poor fit]"
CC(=O)N1c2ccccc2CC1C(=O)N1CCN(c2ccc(F)cc2)CC1 (centres undefined),AC50,[1],"0.0316 µM [rising, full curve, poor fit]"
O=C(Nc1ccc(F)cc1F)c1ccc(CN2CC(=O)N3CCCCC3C2=O)cc1 (centres undefined),AC50,[1],"12.6 µM [falling, partial curve]"
CC(C)(C)c1cc(C(C)(C)C)c2oc(=O)c(-c3nc4ccccc4[nH]3)cc2c1,AC50,[1],"12.6 µM [falling, partial curve]"
Cc1ccc(Cn2c(SCC(=O)NCc3ccc(Cl)cc3)nc3ccsc3c2=O)cc1,AC50,[1],"31.6 µM [rising, partial curve, poor fit]"
Cc1noc(-c2ccccc2OCC(=O)Nc2cccc([N+](=O)[O-])c2)n1,AC50,[1],"25.1 µM [falling, single point]"
COC(=O)Nc1ccc(S(=O)(=O)N2CCCC(C(=O)Nc3cccc4c3OCCO4)C2)cc1 (centres undefined),AC50,[1],"25.1 µM [falling, partial curve]"
CS(=O)(=O)N1CCc2cc(S(=O)(=O)N3CCN(Cc4ccc5c(c4)OCO5)CC3)ccc21,AC50,[1],"0.126 µM [falling, full curve]"
CCOC(=O)C1CCCN(S(=O)(=O)c2ccc3[nH]c(=O)ccc3c2)C1 (centres undefined),AC50,[1],"1.58 µM [rising, full curve, poor fit]"
COc1ccc(-c2nnn3c2nc(N2CCCC(C)C2)c2ccccc23)cc1 (centres undefined),AC50,[1],"2 µM [falling, full curve]"
O=C(CSc1nnc(Cc2cccs2)n1Cc1ccco1)Nc1cccc(Cl)c1,AC50,[1],"31.6 µM [falling, partial curve]"
O=C(CN1CCC(c2nc3ccccc3s2)CC1)NCc1cccs1,AC50,[1],"10 µM [falling, partial curve]"
Cc1ccc(NC(=O)c2cc(S(=O)(=O)N3CCOCC3)c(Cl)cc2Cl)cc1,AC50,[1],"15.8 µM [falling, partial curve]"
CCC(Oc1ccccc1)C(=O)Nc1nnc(S(=O)(=O)Nc2ccccc2)s1 (centres undefined),AC50,[1],"3.98 µM [rising, partial curve]"
CCc1ccc(CNC(=O)c2ccc(CSc3nc4ccncc4n3Cc3ccccc3)cc2)cc1,AC50,[1],"12.6 µM [falling, partial curve]"
O=C(NCC1c2ccccc2CCN1C(=O)CN1CCOCC1)C1CCCCC1 (centres undefined),AC50,[1],"3.98 µM [rising, single point]"
CC(=O)c1ccc(N2CCN(C(=O)C3CCN(S(=O)(=O)c4cccc5nonc45)CC3)CC2)cc1,AC50,[1],"20 µM [falling, partial curve]"
O=c1c2c3c(sc2nnn1Cc1ccc(Br)cc1)CCCC3,AC50,[1],"25.1 µM [falling, partial curve]"
O=S(=O)(NCCc1csc(-c2ccc(F)cc2)n1)c1ccc(Cl)cc1,AC50,[1],"25.1 µM [falling, single point]"
CCOC(=O)c1ccc(NC(=O)CCc2c(C)nc3c(c(C)nn3C)c2C)cc1,AC50,[1],"15.8 µM [falling, partial curve]"
CCOc1ccccc1NC(=O)Cn1c(=O)ccc2cc(S(=O)(=O)N3CCC(C)CC3)ccc21,AC50,[1],"2 µM [rising, full curve, poor fit]"
COc1ccc(-c2cnc(C)o2)cc1S(=O)(=O)Nc1ccc(C)c(F)c1,AC50,[1],"2.51 µM [rising, full curve, poor fit]"
Cc1ccc(CN2CCSc3ccc(C(=O)N4CCN(c5cccc(C)c5C)CC4)cc32)cc1,AC50,[1],"15.8 µM [falling, partial curve]"
O=C(CSc1nccn1Cc1ccc(Cl)cc1)NC1CCCC1,AC50,[1],"0.251 µM [falling, full curve, poor fit]"
CCOC(=O)c1ccc(NC(=O)CC2C(=O)N(c3ccccc3)C(=O)N2Cc2cccs2)cc1 (centres undefined),AC50,[1],"20 µM [falling, partial curve]"
Cc1ccc(S(=O)(=O)c2[nH]c(-c3ccccc3)nc2SCC(=O)O)cc1,AC50,[1],"31.6 µM [falling, single point]"
COc1ccc(N2CCN(CC(O)COc3ccc(C(C)(C)C)cc3)CC2)cc1 (centres undefined),AC50,[1],"20 µM [falling, partial curve, poor fit]"
O=C1OC(Nc2ccc3c(c2)OCO3)c2ccccc21 (centres undefined),AC50,[2],"31.6 µM [rising, partial curve]"
same,AC50,[3],"25.1 µM [falling, partial curve]"
CCCNc1nc2c(c(=O)n(C)c(=O)n2C)n1Cc1cccc(C)c1,AC50,[1],"25.1 µM [falling, single point]"
CCOc1ccc(CNC(=O)c2ccc3nc(Cc4ccc(OC)cc4)oc3c2)cc1OC,AC50,[1],"15.8 µM [falling, partial curve]"
CN(C(=O)CSc1nnc2[nH]c(=O)cc(-c3ccccc3)n12)c1ccccc1,AC50,[2],"3.16 µM [rising, partial curve]"
same,AC50,[3],"3.98 µM [rising, partial curve]"
COCCNC(=O)c1ccc2c(c1)N(Cc1cccc(Cl)c1)C(=O)c1ccccc1S2=O (centres undefined),AC50,[1],"39.8 µM [falling, single point]"
Fc1ccc(CNc2ncnc3c2c(-c2ccccc2)cn3-c2ccccc2)cc1,AC50,[2],"6.31 µM [rising, single point]"
same,AC50,[3],"7.94 µM [rising, single point]"
Cc1ccc(C)c(N2CCN(C(=O)CN3C(=O)CSc4c3c(C)nn4-c3ccccc3)CC2)c1,AC50,[1],"31.6 µM [falling, partial curve]"
Cc1c2cnn(-c3ccccc3)c(=O)c2c(C)n1CCCC(=O)Nc1ccc(F)cc1F,AC50,[1],"0.251 µM [falling, full curve]"
COc1ccccc1NC(=O)N(Cc1ccco1)Cc1cc2c(C)ccc(C)c2[nH]c1=O,AC50,[1],"15.8 µM [falling, partial curve]"
O=C(c1ccc2c(Cl)c3c(nc2c1)CCCC3)N1CCN(c2ccccc2)CC1,AC50,[1],"15.8 µM [falling, partial curve]"
CCOc1ccccc1NS(=O)(=O)c1c(-c2ccc(C)cc2)csc1C(=O)OC,AC50,[1],"10 µM [falling, full curve]"
COc1ccc(-c2nc(SCC(=O)NCCCc3ccccc3)n[nH]2)cc1,AC50,[1],"25.1 µM [falling, single point]"
CCN(CC)CCCNC(=O)c1oc2c(c1C)-c1nn(Cc3ccc(Cl)cc3)cc1CC2,AC50,[1],"15.8 µM [falling, single point]"
COc1ccc(NC(=O)CCc2c(C)nn(-c3ccc(N4CCOCC4)nn3)c2C)cc1Cl,AC50,[1],"6.31 µM [rising, single point]"
Cc1cccc(-c2noc(C3CC(=O)N(c4ccc5c(c4)OCCO5)C3)n2)c1 (centres undefined),AC50,[1],"39.8 µM [falling, single point]"
COc1ccc(NC(=O)CSc2ncn(-c3ccccc3)n2)cc1Cl,AC50,[1],"39.8 µM [falling, single point]"
COc1ccc(N(C)C(=O)NCc2noc3ccc(C)cc23)c(OC)c1,AC50,[1],"25.1 µM [falling, single point]"
CCCNC(=O)Nc1cc(C(=O)NCc2cccc(OCC)c2)ccc1N1CCCC1,AC50,[1],"20 µM [falling, partial curve]"
COc1ccccc1NC(=O)CSCc1cc(=O)c2c(C)cc(C)cc2[nH]1,AC50,[1],"15.8 µM [falling, partial curve]"
CC(C)(C)C1CCc2nc(NC(=O)Cc3ccc(Cl)cc3)sc2C1 (centres undefined),AC50,[1],"0.794 µM [rising, full curve]"
Cc1cccc(NC(=O)C2CCCN(S(=O)(=O)c3c(C)noc3/C=C/N(C)C)C2)c1C (centres undefined),AC50,[1],"39.8 µM [falling, single point]"
CCCn1c(N)c(C(=O)CSc2nnc(Cc3ccccc3)o2)c(=O)n(C)c1=O,AC50,[1],"31.6 µM [falling, partial curve]"
CCC(=O)N1CCc2cc(Br)cc(S(=O)(=O)CCC(=O)Nc3ccccc3C)c21,AC50,[1],"0.316 µM [falling, single point]"
CCN(CC)C(=S)SSC(=S)N(CC)CC,AC50,[2],"15.8 µM [rising, partial curve] and 12.6 µM [rising, partial curve]"
same,AC50,[3],"39.8 µM [falling, single point]"
COc1ccc(C(=O)CN2C(=O)N(c3cc(C)cc(C)c3)S(=O)(=O)c3ccccc32)cc1,AC50,[1],"1 µM [rising, full curve, poor fit]"
Clc1ccc(CCNc2ncnc3c2c(-c2ccccc2)cn3-c2ccccc2)cc1,AC50,[1],"39.8 µM [falling, single point]"
CSc1ncnc2c1ncn2CC(=O)[C@H]1CC[C@H]2[C@H]3CCC4=CC(=O)CC[C@@]4(C)[C@@H]3CC[C@@]12C,AC50,[1],"3.16 µM [falling, single point]"
Cc1ccc(Nc2c(-c3ccc(C)cc3)nc3cnccn23)cc1,AC50,[1],"31.6 µM [falling, partial curve]"
N#Cc1cccc(NC(=O)N2CCC(c3nc4c(nnn4Cc4cccc(Cl)c4)c(=O)[nH]3)CC2)c1,AC50,[1],"39.8 µM [falling, single point]"
CCOC(=O)c1ccc(Nc2c(-c3ccc(O)cc3)nc3nc[nH]n23)cc1,AC50,[1],"39.8 µM [rising, single point]"
Cc1ccccc1CS(=O)(=O)Cc1ccc(C(=O)NCCc2ccccc2)o1,AC50,[1],"3.16 µM [falling, partial curve, poor fit]"

# Shown with tabs: entries from further up
smiles	measurement	setting	value
COc1ccc(C)cc1NC(=O)c1oc2ccc(S(=O)(=O)N(C)C3CCCCC3)cc2c1C	AC50	[1]	25.1 µM [falling, partial curve, poor fit]
CS(=O)(=O)N1CCc2cc(S(=O)(=O)N3CCN(Cc4ccc5c(c4)OCO5)CC3)ccc21	AC50	[1]	0.126 µM [falling, full curve]
O=C(CSc1nnc(Cc2cccs2)n1Cc1ccco1)Nc1cccc(Cl)c1	AC50	[1]	31.6 µM [falling, partial curve]
O=C(CN1CCC(c2nc3ccccc3s2)CC1)NCc1cccs1	AC50	[1]	10 µM [falling, partial curve]
Cc1ccc(NC(=O)c2cc(S(=O)(=O)N3CCOCC3)c(Cl)cc2Cl)cc1	AC50	[1]	15.8 µM [falling, partial curve]
CCc1ccc(CNC(=O)c2ccc(CSc3nc4ccncc4n3Cc3ccccc3)cc2)cc1	AC50	[1]	12.6 µM [falling, partial curve]
CC(=O)c1ccc(N2CCN(C(=O)C3CCN(S(=O)(=O)c4cccc5nonc45)CC3)CC2)cc1	AC50	[1]	20 µM [falling, partial curve]
CCOC(=O)c1ccc(NC(=O)CCc2c(C)nc3c(c(C)nn3C)c2C)cc1	AC50	[1]	15.8 µM [falling, partial curve]
COc1ccc(-c2cnc(C)o2)cc1S(=O)(=O)Nc1ccc(C)c(F)c1	AC50	[1]	2.51 µM [rising, full curve, poor fit]
Cc1ccc(S(=O)(=O)c2[nH]c(-c3ccccc3)nc2SCC(=O)O)cc1	AC50	[1]	31.6 µM [falling, single point]
COc1ccc(N2CCN(CC(O)COc3ccc(C(C)(C)C)cc3)CC2)cc1 (centres undefined)	AC50	[1]	20 µM [falling, partial curve, poor fit]
COCCNC(=O)c1ccc2c(c1)N(Cc1cccc(Cl)c1)C(=O)c1ccccc1S2=O (centres undefined)	AC50	[1]	39.8 µM [falling, single point]
COc1ccc(-c2nc(SCC(=O)NCCCc3ccccc3)n[nH]2)cc1	AC50	[1]	25.1 µM [falling, single point]
CCN(CC)CCCNC(=O)c1oc2c(c1C)-c1nn(Cc3ccc(Cl)cc3)cc1CC2	AC50	[1]	15.8 µM [falling, single point]
COc1ccc(NC(=O)CCc2c(C)nn(-c3ccc(N4CCOCC4)nn3)c2C)cc1Cl	AC50	[1]	6.31 µM [rising, single point]
CCCn1c(N)c(C(=O)CSc2nnc(Cc3ccccc3)o2)c(=O)n(C)c1=O	AC50	[1]	31.6 µM [falling, partial curve]
